# Experimental data taken from PubChem BioAssay AID434931 (National Center for Advancing Translational Sciences (NCATS), 2010).
# Protein sequences, listed by entry. Tags and fused reporters are not part of them. Lines headed by an entry give the natural chain unless they say otherwise; changes in a name come on top.
# UniProt Q6W5P4: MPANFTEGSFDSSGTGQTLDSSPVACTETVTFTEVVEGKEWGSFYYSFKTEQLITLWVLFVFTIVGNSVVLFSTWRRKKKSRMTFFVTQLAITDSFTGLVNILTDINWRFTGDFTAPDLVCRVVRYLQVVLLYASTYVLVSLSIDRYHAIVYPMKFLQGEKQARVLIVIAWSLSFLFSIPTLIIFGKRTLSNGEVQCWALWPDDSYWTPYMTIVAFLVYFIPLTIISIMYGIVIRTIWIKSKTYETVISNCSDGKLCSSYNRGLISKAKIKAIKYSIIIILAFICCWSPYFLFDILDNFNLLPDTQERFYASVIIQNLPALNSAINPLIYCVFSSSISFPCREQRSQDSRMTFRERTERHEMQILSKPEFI
# Inconclusive results, whose numbers are uncertain, are shown with a selection of clear calls. Where the call is inconclusive, the potency comes from a doubtful curve fit. Calls of active or inactive are those of the source. Calls come from the whole dose curve; as a rule, active = well fitted inhibition curve with a large enough effect; inconclusive = small, poorly fitted or top-dose-only effect, or another doubt; inactive = no such curve, though single readings can be large or run the other way.
# Molecular target: Neuropeptide S receptor (Homo sapiens) (UniProt Q6W5P4)
# Assay: Confirmation Concentration-Response Assay for Antagonists of the Neuropeptide S Receptor: Robust Characterization of Calcium Signal Transduction
# Conditions: CHO-NPSR cells, NPS-induced calcium fluorescence (FDSS)
# Description: NIH Chemical Genomics Center [NCGC] NIH Molecular Libraries Probe Production centers Network [MLPCN] MLPCN Grant: X01-DA026210-01 Assay Submitter (PI): Heilig, Markus Alexander NCGC Assay Overview: Neuropeptide S receptor (NPSR), previously known as GPR154, is a recently de-orphanized G protein coupled receptor. Its endogenous ligand is the 20 amino acids peptide Neuropeptide S (NPS). […] NPS and its receptor are found in various tissues. Specifically they are highly expressed in brain areas that have been implicated in modulation of arousal, stress and anxiety. Central administration of NPS in mice produces an unusual profile of activity by inducing wakefulness and arousal, while at the same time suppressing anxiety. Therefore, NPSR may represent a novel drug target for the treatment of sleep and anxiety disorders. To identify NPSR antagonists, we developed a cell-based assay with transfected NPS receptor. NPS can stimulate the production of cAMP as well as release intracellular calcium in Chinese hamster ovary cells stably expressing NPS receptor. This change in intracellular calcium can be detected using a calcium indicator dye on a calcium imaging plate reader system (FDSS). This particular assay uses a high density of sampling across concentration-response space to establish more confidence estimates of potency.
# NCGC Assay Protocol Summary: A Chinese hamster ovary (CHO) cell line stably expressing the NPS receptor (CHO-NPSR) was obtained from Dr. Heilig lab at NIAAA and maintained in F-12 Kaighn's media (Invitrogen, Carlsbad, CA, 21127) supplemented with 10 % FBS, 100 units/ml penicillin, 100 ug/ml streptomycin and 250 ug/ml geneticin at 37C, 5% CO2 in a humidified atmosphere. […] The assay was performed on a FDSS-7000 kinetic plate reader in 1536-well format. For both agonist (1-220s) and antagonist (221-400s) phases, the maximums of kinetic fluorescence responses were converted separately into text files using the instrument's software data export utility. […] AC50 values were determined from concentration-response data modeled with the standard Hill equation. […]
row,SMILES,Potency
1,Cc1c(P(=S)(c2ccccc2)c2ccccc2)[n+]2ccccc2n1CCc1ccccc1,active: 71.2 nM
2,Cn1cc(P(=S)(c2ccccc2)c2ccccc2)c2ccccc21,"inconclusive: 7110 nM [inhibitor, partial curve]"
3,Cc1c(P(=S)(c2ccccc2)c2ccccc2)[n+]2ccccc2n1CCCCc1ccccc1,active: 1.1 nM
